Patent US20240342161A1, “BISBENZYLISOQUINOLINES AS CONDITIONING AGENTS FOR IMMUNE THERAPY” (priority 2023, published 2024)

System: K562 cells
Assay: Protein recovered from K562 cell lysates after Tetrandrine exposure (BCA protein assay)
Assay type: cell-based, human
Details: 24 hours, 8×10^6 K562 cells

Substance: 6,6′,7,12-tetramethoxy-2,2′-dimethyl-berbaman [ES-3000]
- Protein Recovered (0.1 μM): 1.1 mg
- Protein Recovered (1 μM): 1.1 mg
- Protein Recovered (5 μM): 1.0 mg
- Protein Recovered (10 μM): 1.1 mg
- Protein Recovered (20 μM): 1.0 mg
- Protein Recovered (40 μM): 0.9 mg
